Results reported in article PMC4855144.
Results are given in words; binding and its absence hold for the method and conditions named. Binding seen in cells or lysates may run through a third protein. Some entries that bind do so weakly or less than the wild type.

Chains of the proteins cited; added tags and fusions are not shown. Lines headed by an entry give the natural chain unless they say otherwise; changes in a name come on top. Residues count along the entry.
UniProt O00401: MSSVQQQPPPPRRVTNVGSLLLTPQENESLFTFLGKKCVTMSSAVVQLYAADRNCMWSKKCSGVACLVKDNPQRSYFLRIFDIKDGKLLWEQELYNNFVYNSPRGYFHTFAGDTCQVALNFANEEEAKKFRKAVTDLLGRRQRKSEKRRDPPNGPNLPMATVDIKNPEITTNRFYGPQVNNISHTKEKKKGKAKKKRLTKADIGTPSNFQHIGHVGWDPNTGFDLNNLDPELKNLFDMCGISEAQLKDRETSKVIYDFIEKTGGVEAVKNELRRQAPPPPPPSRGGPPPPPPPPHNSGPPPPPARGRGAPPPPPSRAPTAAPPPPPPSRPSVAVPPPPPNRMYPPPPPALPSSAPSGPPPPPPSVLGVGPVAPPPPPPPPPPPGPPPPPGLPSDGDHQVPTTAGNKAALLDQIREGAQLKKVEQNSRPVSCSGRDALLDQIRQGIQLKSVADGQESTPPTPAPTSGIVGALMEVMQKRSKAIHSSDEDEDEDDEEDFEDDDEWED
GFP-N-WASP WH1 (WH1 domain only): residues 34-141 of O00401

Assays:
[1] = biological target: GFP-N-WASP WH1 (WH1 domain only) (UniProt O00401); assay: co-IP; GFP microbeads precipitate GFP-N-WASP and fragments ΔWA, WH1, WH1-GBD from HEK293T cell extracts; endogenous CRN7 detected with mAb K37-142-1; ratio of co-IP to IP
[2] = biological target: GFP-tagged full-length N-WASP (UniProt O00401); assay: as above

B1: endogenous CRN7 (Coronin7) of HEK293T cells (protein, UniProt P57737 1-925)
chain: MNRFRVSKFRHTEARPPRRESWISDIRAGTAPSCRNHIKSSCSLIAFNSDRPGVLGIVPLQGQGEDKRRVAHLGCHSDLVTDLDFSPFDDFLLATGSADRTVKLWRLPGPGQALPSAPGVVLGPEDLPVEVLQFHPTSDGILVSAAGTTVKVWDAAKQQPLTELAAHGDLVQSAVWSRDGALVGTACKDKQLRIFDPRTKPRASQSTQAHENSRDSRLAWMGTWEHLVSTGFNQMREREVKLWDTRFFSSALASLTLDTSLGCLVPLLDPDSGLLVLAGKGERQLYCYEVVPQQPALSPVTQCVLESVLRGAALVPRQALAVMSCEVLRVLQLSDTAIVPIGYHVPRKAVEFHEDLFPDTAGCVPATDPHSWWAGDNQQVQKVSLNPACRPHPSFTSCLVPPAEPLPDTAQPAVMETPVGDADASEGFSSPPSSLTSPSTPSSLGPSLSSTSGIGTSPSLRSLQSLLGPSSKFRHAQGTVLHRDSHITNLKGLNLTTPGESDGFCANKLRVAVPLLSSGGQVAVLELRKPGRLPDTALPTLQNGAAVTDLAWDPFDPHRLAVAGEDARIRLWRVPAEGLEEVLTTPETVLTGHTEKICSLRFHPLAANVLASSSYDLTVRIWDLQAGADRLKLQGHQDQIFSLAWSPDGQQLATVCKDGRVRVYRPRSGPEPLQEGPGPKGGRGARIVWVCDGRCLLVSGFDSQSERQLLLYEAEALAGGPLAVLGLDVAPSTLLPSYDPDTGLVLLTGKGDTRVFLYELLPESPFFLECNSFTSPDPHKGLVLLPKTECDVREVELMRCLRLRQSSLEPVAFRLPRVRKEFFQDDVFPDTAVIWEPVLSAEAWLQGANGQPWLLSLQPPDMSPVSQAPREAPARRAPSSAQYLEEKSDQQKKEELLNAMVAKLGNREDPLPQDSFEGVDEDEWD
For B1, the binding [1] was “binds” and the binding [2] was “binds weakly”.
